Patent US4537895A, “Isoquinoline derivatives” (EGYT Gyogyszervegyeszeti Gyar, priority 1982, dated 1985)
Where a name gives a salt, the structure may show the parent alone. For at least one compound, name, drawing or mass did not settle the structure.

Experiments:
[1] = Overall comparison with Nomifensine in the pharmacological tests; type: in vivo; settings: all tests
Description: The pharmacological activity of the compounds of the present invention is determined by the following tests:
(§1) The acute toxicity data are determined in mice. Tests 2-6 are also carried out in mice. The doses are expressed in micromole/kg. The therapeutical index (TI) is the LD/ED quotient.
Tests 7-10 are carried out in cats and rats, the doses are expressed in micromole/kg.

[2] = system: catalepsy induced by Haloperidol / tetrabenazine; assay: Comparison of anti-haloperidol (Test 2) and anti-tetrabenazine (Test 4) activity; type: in vivo, mice; settings: from quotient ED2:ED4
Description: 2. S.c. dose which inhibits the catalepsy induced by a 13 umole/kg dose of Haloperidol, in 50% of the mice.
4. S.c. dose which inhibits the catalepsy induced by a 110 umole/kg dose of tetrabenazine, in 50% of the mice.
as §1
On comparing the dopaminerg type anti-haloperidol test and the anti-tetrabenazine activity being characteristic of the antidepressive effect the following can be stated:
The quotient of the ED values of Columns 2 and 4 is the highest for Compound I (55:13=4.2). […] The said quotient is high in the case of Nomifensine (1.6), Compound D (1.8), Compound E (2.7) and Compound F (1.7).

SMILES	Activity compared with Nomifensine (in words) [1]	Antidepressant versus antiparkinson profile (in words) [2]
CCCCNCC(=O)Nc1cccc2c1CN(C)CC2c1ccc(Cl)cc1 (stereo not drawn) [Compound D, 8-butyl-amino-acetyl-amino-4-p-chloro-phenyl-2-methyl-1,2,3,4-tetrahydro-isoquinoline-maleate]	more active than Nomifensine in several tests	
CCNCC(=O)Nc1cccc2c1CN(C)CC2c1ccc(C)cc1 (stereo not drawn) [Compound H, 8-ethylamino-acetyl-amino-2-methyl-4-p-tolyl-1,2,3,4-tetrahydro-isoquinoline maleate]	very high activity	stronger anti-dopamine, anti-parkinsone activity
